1 molecule from publication PMC12519287 can be followed below.

The target of the experiment is T1, FLAG-PPP1R21 FL (full-length protein phosphatase 1 regulatory subunit 21 with a FLAG tag) (human) (UniProt Q6ZMI0).
T1 sequence: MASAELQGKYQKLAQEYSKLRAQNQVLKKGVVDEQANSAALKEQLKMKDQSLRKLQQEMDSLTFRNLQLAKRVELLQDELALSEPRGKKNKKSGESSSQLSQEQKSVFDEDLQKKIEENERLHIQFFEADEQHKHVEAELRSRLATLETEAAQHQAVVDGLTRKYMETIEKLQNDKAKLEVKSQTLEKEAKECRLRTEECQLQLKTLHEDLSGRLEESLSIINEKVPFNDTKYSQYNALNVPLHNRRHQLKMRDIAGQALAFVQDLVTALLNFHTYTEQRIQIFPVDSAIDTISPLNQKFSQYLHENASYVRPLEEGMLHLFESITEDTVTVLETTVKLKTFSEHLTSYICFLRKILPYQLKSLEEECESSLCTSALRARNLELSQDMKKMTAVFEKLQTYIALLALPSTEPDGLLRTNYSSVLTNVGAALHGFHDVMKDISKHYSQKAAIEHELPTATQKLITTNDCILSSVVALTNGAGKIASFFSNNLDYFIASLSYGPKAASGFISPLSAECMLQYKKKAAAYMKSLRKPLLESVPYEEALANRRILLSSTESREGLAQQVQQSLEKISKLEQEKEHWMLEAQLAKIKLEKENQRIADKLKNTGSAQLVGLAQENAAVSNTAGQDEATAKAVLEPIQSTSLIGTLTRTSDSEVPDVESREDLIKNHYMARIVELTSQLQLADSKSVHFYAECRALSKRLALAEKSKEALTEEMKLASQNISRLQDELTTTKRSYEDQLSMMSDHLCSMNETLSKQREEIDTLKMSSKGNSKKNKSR
Description: affinity purification with mass spectrometry; FLAG-PPP1R21 FL overexpressed in HEK293T cells; co-IP with anti-FLAG antibody or control IgG; 0.5% CHAPS lysis buffer; precipitates separated by SDS-PAGE, full lane analysed by MS.

These are yes or no findings as the source states them, for the method shown. Binding seen in cells or lysates may run through a third protein. Here binding means that the protein was enriched with, or labelled near, the bait; the list need not be complete. Sequences can lack the tags named with a protein.

B1: endogenous AEG-1 (HEK293T) (protein, UniProt Q86UE4 1-582)
chain: MAARSWQDELAQQAEEGSARLREMLSVGLGFLRTELGLDLGLEPKRYPGWVILVGTGALGLLLLFLLGYGWAAACAGARKKRRSPPRKREEAAAVPAAAPDDLALLKNLRSEEQKKKNRKKLSEKPKPNGRTVEVAEGEAVRTPQSVTAKQPPEIDKKNEKSKKNKKKSKSDAKAVQNSSRHDGKEVDEGAWETKISHREKRQQRKRDKVLTDSGSLDSTIPGIENTITVTTEQLTTASFPVGSKKNKGDSHLNVQVSNFKSGKGDSTLQVSSGLNENLTVNGGGWNEKSVKLSSQISAGEEKWNSVSPASAGKRKTEPSAWSQDTGDANTNGKDWGRSWSDRSIFSGIGSTAEPVSQSTTSDYQWDVSRNQPYIDDEWSGLNGLSSADPNSDWNAPAEEWGNWVDEERASLLKSQEPIPDDQKVSDDDKEKGEGALPTGKSKKKKKKKKKQGEDNSTAQDTEELEKEIREDLPVNTSKTRPKQEKAFSLKTISTSDPAEVLVKNSQPIKTLPPATSTEPSVILSKSDSDKSSSQVPPILQETDKSKSNTKQNSVPPSQTKSETSWESPKQIKKKKKARRET
As for B1, the binding result is reported as “binds”.
